Measured values published in publication PMC11919608.
Results are given in words; binding and its absence hold for the method and conditions named. In cells and extracts the contact can be indirect. Some results given as binding are weak or reduced against the parent protein; the word gives no strength. One block for each molecule: values may come before it.

By UniProt entry, the sequences of proteins in these tests, tags left out.
UniProt P32121: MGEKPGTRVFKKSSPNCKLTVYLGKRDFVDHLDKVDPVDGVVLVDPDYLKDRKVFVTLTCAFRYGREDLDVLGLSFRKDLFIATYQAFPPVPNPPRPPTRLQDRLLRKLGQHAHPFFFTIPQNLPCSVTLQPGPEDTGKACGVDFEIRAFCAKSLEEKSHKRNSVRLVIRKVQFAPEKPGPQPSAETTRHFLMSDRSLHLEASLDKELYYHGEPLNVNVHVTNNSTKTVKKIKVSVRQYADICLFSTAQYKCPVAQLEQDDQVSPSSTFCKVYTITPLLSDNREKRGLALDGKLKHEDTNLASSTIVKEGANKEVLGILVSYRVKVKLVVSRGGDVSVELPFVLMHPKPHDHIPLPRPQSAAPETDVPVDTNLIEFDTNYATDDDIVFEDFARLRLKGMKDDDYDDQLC
UniProt P25963: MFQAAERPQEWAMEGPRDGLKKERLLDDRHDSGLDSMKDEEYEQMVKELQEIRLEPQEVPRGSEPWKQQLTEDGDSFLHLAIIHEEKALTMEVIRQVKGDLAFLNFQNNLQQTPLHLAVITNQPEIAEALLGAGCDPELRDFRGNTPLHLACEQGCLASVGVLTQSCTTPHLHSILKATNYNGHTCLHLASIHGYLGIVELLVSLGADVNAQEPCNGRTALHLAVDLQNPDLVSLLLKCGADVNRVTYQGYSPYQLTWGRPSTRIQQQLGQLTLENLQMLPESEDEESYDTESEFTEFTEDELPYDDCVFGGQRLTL

Target: β-arrestin2 (human (endogenous in AGS)) (UniProt P32121)
Assay: co-IP; AGS cell lysates incubated with antibodies overnight, then protein A/G-sepharose beads for 4 h, washed three times with ice-cold lysis buffer, immunoblot; cells with or without 3 μM erastin or 1 μM RSL3 for 24 h (Figure 4A); AGS.Vector and AGS.WTX-L cells (Figure 4B)

- binding: binds
Molecule: IκBα (from UniProt P25963 1-317)

- binding: binds
B1: WTX-L (long, unspliced isoform of WTX; APC membrane recruitment protein 1) (protein, UniProt Q5JTC6 1-1135)
chain: METQKDEAAQAKGAAASGSTREQTAEKGAKNKAAEATEGPTSEPSSSGPGRLKKTAMKLFGGKKGICTLPSFFGGGRSKGSGKGSSKKGLSKSKTHDGLSEAAHGPEDVVSEGTGFSLPLPELPCQFPSSQSAHGALETGSRCKTSVAGATEKAVAEKFPSMPKPKKGLKGFFSSIRRHRKSKVTGAEQSEPGAKGPERVRARPHEHVSSAPQVPCFEETFQAPRKENANPQDAPGPKVSPTPEPSPPATEKMACKDPEKPMEACASAHVQPKPAPEASSLEEPHSPETGEKVVAGEVNPPNGPVGDPLSLLFGDVTSLKSFDSLTGCGDIIAEQDMDSMTDSMASGGQRANRDGTKRSSCLVTYQGGGEEMALPDDDDEEEEEEEEVELEEEEEEVKEEEEDDDLEYLWETAQMYPRPNMNLGYHPTTSPGHHGYMLLDPVRSYPGLAPGELLTPQSDQQESAPNSDEGYYDSTTPGFEDDSGEALGLVRRDCLPRDSYSGDALYEFYEPDDSLENSPPGDDCLYDLHGRSSEMFDPFLNFEPFLSSRPPGAMETEEERLVTIQKQLLYWELRREQLEAQEARAREAHAREAHAREAYTREAYGREAYAREAHTWEAHGREARTREAQAREVRCRETQVRETQARQEKPVLEYQMRPLGPSVMGLAAGVSGTSQISHRGITSAFPTTASSEPDWRDFRPLEKRYEGTCSKKDQSTCLMQLFQSDAMFEPDMQEANFGGSPRRAYPTYSPPEDPEEEEVEKEGNATVSFSQALVEFTSNGNLFSSMSCSSDSDSSFTQNLPELPPMVTFDIADVERDGEGKCEENPEFHNDEDLAASLEAFELGYYHKHAFNNYHSRFYQGLPWGVSSLPRYLGLPGLHPRPPPAAMALNRRSRSLDTAETLEMELSNSHLVQGYLESDELQAQQEDSDEEDEEEEEGEWSRDSPLSLYTEPPGAYDWPAWAPCPLPVGPGPAWISPNQLDRPSSQSPYRQATCCIPPMTMSISLSVPESRAPGESGPQLARPSHLHLPMGPCYNLQPQASQSMRARPRDVLLPVDEPSCSSSSGGFSPSPLPQAKPVGITHGIPQLPRVRPEHPQPQPTHYGPSSLDLSKERAEQGASLATSYSSTAMNGNLAK
